The list shows a part of the results.
What was measured:
Assay in all cases: log2 fold change, soluble protein after heating vs DMSO (PISA); higher = thermal stabilisation; K562 lysate, 10 uM; active = over 0.2 and 3.5 SD of the protein, either way, in both replicates (recomputed)
lapatinib = compound: CS(=O)(=O)CCNCc1ccc(-c2ccc3ncnc(Nc4ccc(OCc5cccc(F)c5)c(Cl)c4)c3c2)o1 [lapatinib]
Summary of the method: (§1)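 The values are log-two fold changes in thermal stability compared with solvent controls and come from duplicates. They were obtained by TMTpro 16plex LC-MS/MS, with channel sums equalised, on the supernatant after 21,000xg for 90 min. That supernatant came from crude K562 extract at 1 mg/mL protein treated with 10 μM compound for 30 min, heated for 3 min across 48°C-58°C, pooled and brought to 0.5% NP-40 at 4°C.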

Sequences of proteins named here, by UniProt entry; tags and fusion partners are left off. A change or cut given only in a name is not applied to a line headed by its entry.
UniProt P29590: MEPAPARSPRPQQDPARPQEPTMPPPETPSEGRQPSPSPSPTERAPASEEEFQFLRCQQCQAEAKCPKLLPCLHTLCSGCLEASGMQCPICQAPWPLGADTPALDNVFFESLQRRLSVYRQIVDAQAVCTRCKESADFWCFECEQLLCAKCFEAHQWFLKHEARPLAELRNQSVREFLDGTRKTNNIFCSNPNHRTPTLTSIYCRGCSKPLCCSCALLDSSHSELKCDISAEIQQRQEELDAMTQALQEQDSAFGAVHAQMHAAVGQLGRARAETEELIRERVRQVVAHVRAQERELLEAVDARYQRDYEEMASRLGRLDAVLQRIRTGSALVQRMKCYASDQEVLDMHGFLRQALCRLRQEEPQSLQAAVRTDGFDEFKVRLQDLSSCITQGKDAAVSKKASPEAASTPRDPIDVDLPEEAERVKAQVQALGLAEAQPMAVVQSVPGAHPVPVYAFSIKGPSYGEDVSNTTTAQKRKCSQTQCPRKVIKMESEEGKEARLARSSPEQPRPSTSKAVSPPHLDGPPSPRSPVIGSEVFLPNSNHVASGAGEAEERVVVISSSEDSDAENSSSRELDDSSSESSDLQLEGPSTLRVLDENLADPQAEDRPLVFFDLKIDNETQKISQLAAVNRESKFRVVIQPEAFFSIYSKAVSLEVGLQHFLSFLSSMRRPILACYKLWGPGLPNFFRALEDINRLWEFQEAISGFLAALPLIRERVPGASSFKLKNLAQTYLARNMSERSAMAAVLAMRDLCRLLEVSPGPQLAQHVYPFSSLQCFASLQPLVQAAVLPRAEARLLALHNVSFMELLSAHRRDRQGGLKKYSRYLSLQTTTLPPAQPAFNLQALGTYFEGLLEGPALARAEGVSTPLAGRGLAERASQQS
UniProt Q8TF01: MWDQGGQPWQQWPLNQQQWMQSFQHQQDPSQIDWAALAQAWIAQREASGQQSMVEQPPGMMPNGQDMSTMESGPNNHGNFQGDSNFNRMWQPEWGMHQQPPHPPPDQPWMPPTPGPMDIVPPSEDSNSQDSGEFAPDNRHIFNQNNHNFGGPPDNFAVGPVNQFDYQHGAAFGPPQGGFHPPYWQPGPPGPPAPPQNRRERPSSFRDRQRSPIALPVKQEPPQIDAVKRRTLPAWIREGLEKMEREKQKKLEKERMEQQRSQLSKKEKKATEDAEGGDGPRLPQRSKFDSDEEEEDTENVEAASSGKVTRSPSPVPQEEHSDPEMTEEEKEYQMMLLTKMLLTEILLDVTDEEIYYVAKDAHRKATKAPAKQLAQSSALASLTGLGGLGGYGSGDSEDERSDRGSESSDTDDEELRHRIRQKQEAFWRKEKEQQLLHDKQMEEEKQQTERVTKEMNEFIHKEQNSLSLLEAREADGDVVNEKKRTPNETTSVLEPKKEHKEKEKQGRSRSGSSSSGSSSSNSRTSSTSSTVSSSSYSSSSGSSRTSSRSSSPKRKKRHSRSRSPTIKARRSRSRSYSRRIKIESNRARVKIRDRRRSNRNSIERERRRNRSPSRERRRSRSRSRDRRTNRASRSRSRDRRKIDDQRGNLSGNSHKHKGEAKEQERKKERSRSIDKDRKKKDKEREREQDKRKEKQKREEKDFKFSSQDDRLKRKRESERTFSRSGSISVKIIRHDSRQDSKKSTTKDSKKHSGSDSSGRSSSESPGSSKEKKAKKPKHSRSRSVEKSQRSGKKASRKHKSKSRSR
UniProt Q7Z4H8: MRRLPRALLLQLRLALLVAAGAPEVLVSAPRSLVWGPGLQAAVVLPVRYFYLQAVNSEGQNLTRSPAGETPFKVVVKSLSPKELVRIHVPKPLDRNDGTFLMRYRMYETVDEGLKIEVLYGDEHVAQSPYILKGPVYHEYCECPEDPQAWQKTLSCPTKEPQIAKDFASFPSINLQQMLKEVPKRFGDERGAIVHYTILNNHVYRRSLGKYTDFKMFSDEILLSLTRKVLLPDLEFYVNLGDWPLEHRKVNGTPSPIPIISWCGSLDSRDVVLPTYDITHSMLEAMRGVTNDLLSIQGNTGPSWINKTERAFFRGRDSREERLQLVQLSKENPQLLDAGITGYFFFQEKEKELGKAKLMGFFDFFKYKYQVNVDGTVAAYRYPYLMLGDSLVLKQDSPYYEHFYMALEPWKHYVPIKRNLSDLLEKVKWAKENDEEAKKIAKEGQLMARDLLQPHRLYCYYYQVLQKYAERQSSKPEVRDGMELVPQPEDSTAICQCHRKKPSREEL
UniProt Q15181: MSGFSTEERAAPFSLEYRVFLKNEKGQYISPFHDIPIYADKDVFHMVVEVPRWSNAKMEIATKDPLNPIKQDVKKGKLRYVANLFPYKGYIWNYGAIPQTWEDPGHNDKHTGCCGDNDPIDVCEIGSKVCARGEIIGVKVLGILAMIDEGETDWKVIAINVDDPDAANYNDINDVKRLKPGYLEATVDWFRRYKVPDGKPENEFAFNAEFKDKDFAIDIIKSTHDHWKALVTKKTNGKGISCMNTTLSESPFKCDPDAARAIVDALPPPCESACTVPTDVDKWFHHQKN
UniProt Q99575: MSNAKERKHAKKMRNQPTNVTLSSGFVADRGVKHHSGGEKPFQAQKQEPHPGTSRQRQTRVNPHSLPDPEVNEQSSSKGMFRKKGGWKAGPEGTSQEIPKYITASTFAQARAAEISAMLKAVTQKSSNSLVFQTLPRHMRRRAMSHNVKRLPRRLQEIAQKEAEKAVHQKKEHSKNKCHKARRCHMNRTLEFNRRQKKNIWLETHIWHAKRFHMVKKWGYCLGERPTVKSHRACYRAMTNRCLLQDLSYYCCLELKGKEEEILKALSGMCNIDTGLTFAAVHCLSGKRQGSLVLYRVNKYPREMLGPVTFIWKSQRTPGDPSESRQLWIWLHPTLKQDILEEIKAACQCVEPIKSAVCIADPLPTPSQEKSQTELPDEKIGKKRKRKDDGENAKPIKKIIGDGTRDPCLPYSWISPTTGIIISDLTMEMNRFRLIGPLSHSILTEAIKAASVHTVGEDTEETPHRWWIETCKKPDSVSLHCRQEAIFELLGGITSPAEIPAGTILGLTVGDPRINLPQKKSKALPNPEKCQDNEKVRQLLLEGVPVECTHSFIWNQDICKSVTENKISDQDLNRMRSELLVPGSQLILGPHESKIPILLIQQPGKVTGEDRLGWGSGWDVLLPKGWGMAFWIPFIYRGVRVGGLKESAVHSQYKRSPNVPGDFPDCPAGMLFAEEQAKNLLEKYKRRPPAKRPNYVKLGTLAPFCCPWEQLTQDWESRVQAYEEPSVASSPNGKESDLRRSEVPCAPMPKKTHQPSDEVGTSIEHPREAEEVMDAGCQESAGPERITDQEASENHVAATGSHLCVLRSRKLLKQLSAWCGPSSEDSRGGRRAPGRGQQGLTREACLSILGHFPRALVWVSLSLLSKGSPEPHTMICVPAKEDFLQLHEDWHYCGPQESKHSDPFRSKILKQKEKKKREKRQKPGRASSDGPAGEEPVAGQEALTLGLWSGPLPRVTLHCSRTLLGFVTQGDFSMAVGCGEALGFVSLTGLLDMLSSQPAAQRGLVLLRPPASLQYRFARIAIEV
UniProt Q8IWE5: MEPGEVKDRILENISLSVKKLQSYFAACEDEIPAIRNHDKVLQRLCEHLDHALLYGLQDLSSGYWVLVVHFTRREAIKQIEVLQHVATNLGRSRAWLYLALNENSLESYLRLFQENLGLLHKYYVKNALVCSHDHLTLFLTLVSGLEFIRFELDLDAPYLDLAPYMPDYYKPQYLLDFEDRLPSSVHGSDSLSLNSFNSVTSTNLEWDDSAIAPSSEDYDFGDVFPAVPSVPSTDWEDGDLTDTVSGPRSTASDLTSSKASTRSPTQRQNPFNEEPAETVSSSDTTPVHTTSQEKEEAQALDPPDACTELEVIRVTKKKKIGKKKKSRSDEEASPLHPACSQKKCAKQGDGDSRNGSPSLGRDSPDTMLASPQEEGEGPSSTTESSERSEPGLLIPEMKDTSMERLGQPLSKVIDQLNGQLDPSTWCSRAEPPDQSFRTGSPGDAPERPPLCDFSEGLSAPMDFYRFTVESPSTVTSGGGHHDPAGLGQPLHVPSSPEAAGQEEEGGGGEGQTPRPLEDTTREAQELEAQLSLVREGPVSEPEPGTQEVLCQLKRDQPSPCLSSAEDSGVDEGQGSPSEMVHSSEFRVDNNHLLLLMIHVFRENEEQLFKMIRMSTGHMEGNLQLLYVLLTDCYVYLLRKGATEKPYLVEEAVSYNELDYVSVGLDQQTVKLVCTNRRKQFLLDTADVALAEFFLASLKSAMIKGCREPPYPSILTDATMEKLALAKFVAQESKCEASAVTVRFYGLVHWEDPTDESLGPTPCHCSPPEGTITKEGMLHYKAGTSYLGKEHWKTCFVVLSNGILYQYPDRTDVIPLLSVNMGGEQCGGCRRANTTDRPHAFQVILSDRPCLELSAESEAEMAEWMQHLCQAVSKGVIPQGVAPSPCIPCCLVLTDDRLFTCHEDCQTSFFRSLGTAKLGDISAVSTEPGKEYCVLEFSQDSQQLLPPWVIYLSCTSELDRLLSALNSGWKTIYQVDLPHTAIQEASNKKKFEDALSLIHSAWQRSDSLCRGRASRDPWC
UniProt P16435: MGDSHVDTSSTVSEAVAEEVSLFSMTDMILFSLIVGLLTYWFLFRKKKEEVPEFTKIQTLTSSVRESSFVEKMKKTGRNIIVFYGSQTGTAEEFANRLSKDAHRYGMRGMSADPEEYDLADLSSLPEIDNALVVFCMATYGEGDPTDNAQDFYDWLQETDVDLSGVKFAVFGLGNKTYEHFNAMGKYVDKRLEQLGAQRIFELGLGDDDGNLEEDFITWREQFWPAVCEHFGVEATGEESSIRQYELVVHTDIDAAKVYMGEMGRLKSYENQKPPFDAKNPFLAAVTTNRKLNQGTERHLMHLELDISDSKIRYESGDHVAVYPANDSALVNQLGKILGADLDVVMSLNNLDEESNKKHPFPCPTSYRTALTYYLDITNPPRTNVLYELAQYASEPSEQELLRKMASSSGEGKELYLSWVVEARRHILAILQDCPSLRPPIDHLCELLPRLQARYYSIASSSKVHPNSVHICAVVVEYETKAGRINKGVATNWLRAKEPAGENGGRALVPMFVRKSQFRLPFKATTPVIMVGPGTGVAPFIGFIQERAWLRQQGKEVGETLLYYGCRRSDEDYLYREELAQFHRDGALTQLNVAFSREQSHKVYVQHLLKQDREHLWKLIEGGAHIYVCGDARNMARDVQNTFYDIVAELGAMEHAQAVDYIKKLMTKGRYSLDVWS
UniProt Q9H307: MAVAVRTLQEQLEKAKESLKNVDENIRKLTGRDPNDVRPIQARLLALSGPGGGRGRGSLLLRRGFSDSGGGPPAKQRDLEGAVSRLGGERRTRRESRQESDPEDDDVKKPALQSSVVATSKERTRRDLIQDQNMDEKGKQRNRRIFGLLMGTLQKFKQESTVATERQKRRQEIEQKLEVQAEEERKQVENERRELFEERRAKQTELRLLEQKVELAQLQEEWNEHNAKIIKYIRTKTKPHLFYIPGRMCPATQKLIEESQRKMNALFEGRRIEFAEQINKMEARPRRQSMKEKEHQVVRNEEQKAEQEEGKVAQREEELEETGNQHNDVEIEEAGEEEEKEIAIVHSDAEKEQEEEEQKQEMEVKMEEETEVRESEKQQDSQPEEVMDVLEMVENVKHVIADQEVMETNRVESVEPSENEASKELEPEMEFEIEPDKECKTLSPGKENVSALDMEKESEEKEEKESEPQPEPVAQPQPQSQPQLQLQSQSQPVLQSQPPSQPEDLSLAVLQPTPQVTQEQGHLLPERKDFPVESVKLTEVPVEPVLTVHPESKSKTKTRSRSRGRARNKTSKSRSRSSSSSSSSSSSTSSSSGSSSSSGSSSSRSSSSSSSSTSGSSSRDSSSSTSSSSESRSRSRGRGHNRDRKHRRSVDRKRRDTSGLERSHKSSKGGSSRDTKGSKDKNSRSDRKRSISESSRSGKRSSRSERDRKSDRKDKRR
UniProt Q15126: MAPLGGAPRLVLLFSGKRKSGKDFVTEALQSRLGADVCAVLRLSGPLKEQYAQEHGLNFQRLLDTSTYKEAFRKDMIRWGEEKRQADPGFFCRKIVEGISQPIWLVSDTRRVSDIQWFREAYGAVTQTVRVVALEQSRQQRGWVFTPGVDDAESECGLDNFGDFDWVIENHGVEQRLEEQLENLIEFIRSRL
UniProt P05423: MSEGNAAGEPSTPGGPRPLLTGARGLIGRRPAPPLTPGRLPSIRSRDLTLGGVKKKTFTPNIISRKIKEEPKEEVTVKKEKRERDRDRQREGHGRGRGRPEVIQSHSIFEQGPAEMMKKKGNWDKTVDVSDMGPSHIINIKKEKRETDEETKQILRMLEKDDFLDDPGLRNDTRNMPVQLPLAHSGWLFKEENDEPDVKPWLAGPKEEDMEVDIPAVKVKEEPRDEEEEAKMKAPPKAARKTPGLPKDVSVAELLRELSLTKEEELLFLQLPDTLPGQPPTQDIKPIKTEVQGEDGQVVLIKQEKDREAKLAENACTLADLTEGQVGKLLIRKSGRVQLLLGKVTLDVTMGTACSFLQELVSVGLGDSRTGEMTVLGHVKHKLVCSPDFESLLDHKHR

pictilisib = compound: CS(=O)(=O)N1CCN(Cc2cc3nc(-c4cccc5[nH]ncc45)nc(N4CCOCC4)c3s2)CC1 [pictilisib]
Summary of the method: as §1

crizotinib = compound: C[C@@H](Oc1cc(-c2cnn(C3CCNCC3)c2)cnc1N)c1c(Cl)ccc(F)c1Cl [crizotinib]
Summary of the method: as §1

[1] = compound: C[C@H](C1=CC=C(C=C1)C(=O)NC2=C3C=CNC3=NC=C2)N
Summary of the method: as §1

duvelisib = compound: C[C@H](Nc1ncnc2nc[nH]c12)c1cc2cccc(Cl)c2c(=O)n1-c1ccccc1 [duvelisib]
Summary of the method: as §1

gandotinib = compound: Cc1cc(Nc2cc(CN3CCOCC3)c3nc(C)c(Cc4ccc(Cl)cc4F)n3n2)n[nH]1 [gandotinib]
Summary of the method: as §1

tozasertib = compound: Cc1cc(Nc2cc(N3CCN(C)CC3)nc(Sc3ccc(NC(=O)C4CC4)cc3)n2)n[nH]1 [tozasertib]
Summary of the method: as §1

doramapimod = compound: Cc1ccc(-n2nc(C(C)(C)C)cc2NC(=O)Nc2ccc(OCCN3CCOCC3)c3ccccc23)cc1 [doramapimod]
Summary of the method: as §1

bafetinib = compound: Cc1ccc(NC(=O)c2ccc(CN3CC[C@H](N(C)C)C3)c(C(F)(F)F)c2)cc1Nc1nccc(-c2cncnc2)n1 [bafetinib]
Summary of the method: as §1

[2] = compound: Cc1cccc(CC(=O)N2CCc3c2ccc(-c2cn(C)c4ncnc(N)c24)c3F)n1
Summary of the method: as §1

Row | Target | log2 fold change (lapatinib) | log2 fold change (pictilisib) | log2 fold change (crizotinib) | log2 fold change [1] | log2 fold change (duvelisib) | log2 fold change (gandotinib) | log2 fold change (tozasertib) | log2 fold change (doramapimod) | log2 fold change (bafetinib) | log2 fold change [2]
1 | POTEF (UniProt A5A3E0) | inactive: -0.036 | inactive: 0.041 | inactive: -0.021 | inactive: 0.003 | inactive: -0.017 | inactive: -0.021 | inactive: -0.011 | inactive: 0.003 | inactive: 0.006 | inactive: -0.008
2 | POGK (UniProt Q9P215) | inactive: -0.055 | inactive: -0.026 | inactive: 0.022 | active: -0.384 | inactive: 0.01 | inactive: 0.095 | inactive: -0.101 | inactive: 0.111 | inactive: -0.109 | inactive: 0.142
3 | PML (UniProt P29590) | inactive: -0.009 | inactive: 0.046 | inactive: 0.023 | inactive: -0.008 | inactive: 0.005 | inactive: 0 | inactive: 0.035 | inactive: 0.014 | inactive: 0.049 | inactive: 0.045
4 | PNISR (UniProt Q8TF01) | inactive: 0.01 | inactive: -0.023 | inactive: 0.037 | inactive: -0.066 | inactive: -0.032 | inactive: 0.053 | inactive: 0.006 | inactive: -0.003 | inactive: -0.038 | inactive: 0.019
5 | POGLUT3 (UniProt Q7Z4H8) | inactive: -0.013 | inactive: 0.011 | inactive: 0.031 | inactive: -0.022 | inactive: -0.03 | inactive: 0 | inactive: -0.059 | inactive: 0.026 | inactive: 0.018 | inactive: 0.035
6 | PPID (UniProt Q08752) | inactive: 0 | inactive: 0.009 | inactive: -0.013 | inactive: 0.071 | inactive: -0.016 | inactive: -0.124 | inactive: 0.026 | inactive: -0.017 | inactive: 0.004 | inactive: -0.095
7 | PPA1 (UniProt Q15181) | inactive: -0.013 | inactive: 0.005 | inactive: -0.008 | inactive: 0.178 | inactive: -0.014 | inactive: -0.021 | inactive: 0.015 | inactive: -0.013 | inactive: 0.037 | inactive: -0.077
8 | POP1 (UniProt Q99575) | inactive: -0.007 | inactive: -0.032 | inactive: -0.007 | inactive: 0.032 | inactive: -0.004 | inactive: 0.006 | inactive: 0.013 | inactive: 0.001 | inactive: 0 | inactive: -0.035
9 | PLEKHM2 (UniProt Q8IWE5) | inactive: -0.066 | inactive: -0.016 | inactive: -0.058 | inactive: -0.002 | inactive: -0.023 | inactive: -0.029 | inactive: -0.007 | inactive: 0.022 | inactive: -0.06 | inactive: 0.015
10 | POMP (UniProt Q9Y244) | inactive: 0.048 | inactive: 0.031 | inactive: -0.054 | inactive: 0.221 | inactive: 0.11 | inactive: -0.063 | inactive: 0.022 | inactive: 0.038 | inactive: 0.017 | inactive: -0.038
11 | PNPO (UniProt Q9NVS9) | inactive: 0.018 | inactive: -0.026 | inactive: 0.009 | inactive: 0.147 | inactive: 0.029 | inactive: -0.153 | inactive: 0.076 | inactive: -0.027 | inactive: 0.053 | inactive: -0.127
12 | PLK1 (UniProt P53350) | inactive: -0.024 | inactive: 0.013 | inactive: -0.179 | inactive: 0.168 | inactive: 0.043 | inactive: -0.088 | inactive: 0.003 | inactive: 0.03 | inactive: -0.019 | inactive: -0.055
13 | POLR2H (UniProt P52434) | inactive: -0.003 | inactive: 0.027 | inactive: -0.047 | inactive: -0.067 | inactive: 0.008 | inactive: 0.027 | inactive: -0.047 | inactive: -0.015 | inactive: 0.008 | inactive: 0.049
14 | POR (UniProt P16435) | inactive: -0.029 | inactive: -0.005 | inactive: 0.052 | inactive: -0.007 | inactive: 0.002 | inactive: 0.029 | inactive: -0.013 | inactive: -0.031 | inactive: 0.009 | inactive: 0.021
15 | PNN (UniProt Q9H307) | inactive: 0.005 | inactive: 0.02 | inactive: 0.077 | inactive: -0.009 | inactive: -0.052 | inactive: 0.053 | inactive: -0.039 | inactive: 0.166 | inactive: 0.014 | inactive: -0.023
16 | POGLUT2 (UniProt Q6UW63) | inactive: 0.042 | inactive: -0.01 | inactive: -0.041 | inactive: -0.013 | inactive: 0.005 | inactive: -0.003 | inactive: 0.033 | inactive: 0.011 | inactive: -0.038 | inactive: 0.02
17 | POLR2C (UniProt P19387) | inactive: 0.014 | inactive: -0.019 | inactive: -0.017 | inactive: -0.056 | inactive: -0.012 | inactive: -0.009 | inactive: 0.026 | inactive: 0.009 | inactive: -0.039 | inactive: 0.073
18 | PMVK (UniProt Q15126) | inactive: -0.093 | inactive: -0.081 | inactive: -0.047 | inactive: -0.028 | inactive: 0.018 | inactive: -0.037 | inactive: 0.107 | inactive: 0.111 | inactive: 0.001 | inactive: 0.095
19 | POM121C (UniProt A8CG34) | inactive: 0.164 | inactive: 0.19 |  | inactive: 0.007 |  | inactive: 0.051 |  |  | inactive: 0.135 | inactive: -0.091
20 | POLR3K (UniProt Q9Y2Y1) | inactive: -0.026 | inactive: -0.048 | inactive: -0.037 | inactive: -0.021 | inactive: 0.058 | inactive: 0.063 | inactive: 0.013 | inactive: 0.006 | inactive: 0.046 | inactive: 0.028
21 | PPFIA3 (UniProt O75145) | inactive: 0.087 | inactive: -0.136 |  | inactive: 0.104 | inactive: 0.004 | inactive: -0.034 |  |  | inactive: 0.022 | inactive: 0.005
22 | POLE (UniProt Q07864) | inactive: -0.038 | inactive: -0.023 | inactive: -0.097 | inactive: -0.033 | inactive: 0.006 | inactive: -0.094 | inactive: 0.005 | inactive: 0.025 | inactive: -0.089 | inactive: 0.034
23 | PLPBP (UniProt O94903) | inactive: 0.026 | inactive: -0.014 | inactive: -0.068 | inactive: 0.002 | inactive: -0.028 | inactive: -0.015 | inactive: 0.013 | inactive: 0.017 | inactive: 0.015 | inactive: 0.038
24 | PNO1 (UniProt Q9NRX1) | inactive: 0.009 | inactive: -0.009 | inactive: 0.013 | inactive: 0.007 | inactive: 0.012 | inactive: -0.055 | inactive: 0 | inactive: -0.08 | inactive: -0.039 | inactive: 0.006
25 | POT1 (UniProt Q9NUX5) | inactive: 0.079 | inactive: -0.008 | inactive: -0.015 | inactive: 0.027 | inactive: -0.036 | inactive: -0.068 | inactive: 0.005 | inactive: 0.06 | inactive: -0.144 | inactive: 0.022
26 | PLS3 (UniProt P13797) | inactive: -0.013 | inactive: -0.051 | inactive: 0.004 | inactive: -0.151 | inactive: 0.036 | inactive: 0.097 | inactive: -0.011 | inactive: -0.008 | inactive: 0.032 | inactive: 0.082
27 | POLG2 (UniProt Q9UHN1) | inactive: 0.004 | inactive: -0.022 | inactive: 0.003 | inactive: 0.001 | inactive: 0 | inactive: 0.024 | inactive: -0.036 | inactive: 0.012 | inactive: 0.015 | inactive: -0.082
28 | POLR3D (UniProt P05423) | inactive: 0.246 | inactive: -0.013 | inactive: -0.031 | inactive: -0.099 | inactive: 0.025 | inactive: 0 | inactive: 0 | inactive: 0.015 | inactive: -0.036 | inactive: 0.098
29 | POP5 (UniProt Q969H6) | inactive: -0.026 | inactive: -0.057 | inactive: 0.005 | inactive: 0.12 | inactive: 0.077 | inactive: -0.11 | inactive: -0.001 | inactive: 0.019 | inactive: -0.039 | inactive: -0.183
